PubChem BioAssay AID1224826 | NIAID | 2016
Test: 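Genes that change LPS-induced Tnf promoter activity in mouse macrophages when knocked down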 (primary screen). System: RAW264.7 G9 macrophages from mouse bearing reporters for p65 (GFP) and the Tnf promoter (mCherry). Reagents: siRNA pool against mouse genes, 100 nM. Time to read-out: 16 h of LPS stimulation, after 2 days of siRNA transfection. Treatment: bacterial lipopolysaccharide (Salmonella minnesota R595), 10 ng/ml. Measurement: 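Imaged Tnf reporter mCherry in nuclei, minus background, normalised per plate to the median and expressed as robust z-scores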. Reading the numbers: Tnf reporter robust z-score: higher = stronger Tnf promoter reporter signal after LPS. Hit rule: 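Called active when robust z-score is at most -1.3, matching the median of the Tlr4 knock-down control, or over 3; control wells and wells with under 50 cells never active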. Calls: active = Tnf reporter clearly lowered or raised; inactive = no clear change in Tnf reporter.
This is a random part of about 17,000 deposited reagents. In the full data, about 1,110 (6.6%) got an active call. 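Active means lowered or raised reporter signal; replicate intensities are raw and not normalised per plate.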 Unmarked entries are inactive. Not all columns of the deposit are shown. No sequences are given here.

Target gene | Tnf reporter robust z-score | fewer than 50 cells in well
Hnrnpdl (heterogeneous nuclear ribonucleoprotein D-like) | 1.69 | enough cells in well
F8 (coagulation factor VIII) | -0.01 | enough cells in well
Snai3 (snail family zinc finger 3) | – | fewer than 50 cells per well; well left out of calls
Mrgprd (MAS-related GPR, member D) | 1.45 | enough cells in well
Ifna1 (interferon alpha 1) | -0.64 | enough cells in well
Msto1 | 0.29 | enough cells in well
Rilpl1 (Rab interacting lysosomal protein-like 1) | 0.14 | enough cells in well
Best1 (bestrophin 1) | -1.3 (active) | enough cells in well
Dstyk (dual serine/threonine and tyrosine protein kinase) | 0.53 | enough cells in well
Scnn1b (sodium channel, nonvoltage-gated 1 beta) | 0.01 | enough cells in well
Rcl1 (RNA terminal phosphate cyclase-like 1) | 2.03 | enough cells in well
Tm6sf2 (transmembrane 6 superfamily member 2) | 0.58 | enough cells in well
Snx9 (sorting nexin 9) | -0.11 | enough cells in well
Kcnj6 (potassium inwardly-rectifying channel, subfamily J, member 6) | 0.08 | enough cells in well
Fbxo42 (F-box protein 42) | -0.64 | enough cells in well
D130060J02Rik (RIKEN cDNA D130060J02 gene) | 0.33 | enough cells in well
Cdk12 (cyclin dependent kinase 12) | -0.56 | enough cells in well
Mtag2 (metastasis associated gene 2) | -0.33 | enough cells in well
Pcdhga6 (protocadherin gamma subfamily A, 6) | -0.32 | enough cells in well
Vps37c (vacuolar protein sorting 37C) | -0.69 | enough cells in well
Or11g1 (olfactory receptor family 11 subfamily G member 1) | – | fewer than 50 cells per well; well left out of calls
Slc26a4 | 0.03 | enough cells in well
Psmd12 (proteasome (prosome, macropain) 26S subunit, non-ATPase, 12) | – | fewer than 50 cells per well; well left out of calls
Hnf4aos (hepatic nuclear factor 4 alpha, opposite strand) | 2.44 | enough cells in well

Part of the list above, showing only “fewer than 50 cells in well”.
Scnn1b (sodium channel, nonvoltage-gated 1 beta): enough cells in well
Rcl1 (RNA terminal phosphate cyclase-like 1): enough cells in well
Tm6sf2 (transmembrane 6 superfamily member 2): enough cells in well
Snx9 (sorting nexin 9): enough cells in well
